Test results from paper PMC7155171, “Probing the Open Global Health Chemical Diversity Library for Multistage-Active Starting Points for Next-Generation Antimalarials” (ACS Infectious Diseases, 2020).
Whole data set: some 68,000 compounds, median “% viability” near 1.1, cut for the lowest 2% near 0.96. The entries are a selection whose mix differs from that of the whole data set. The numbers are fractions of the control, whatever unit the source prints.

test system: P. falciparum (NF54) stage V gametocytes; conditions: 72 h, 2 µM

| Structure (SMILES) | % viability |
| --- | --- |
| CCS(=O)(=O)N1[CH]Cc2ccc(NC(=O)Nc3cccc(C#N)c3)cc21 [DDD01025929] | 1.253 |
